# Source: publication PMC7819943, “Rice protein-binding microarrays: a tool to detect cis-acting elements near promoter regions in rice”
# By UniProt entry, the sequences of proteins in these tests, tags left out.
# UniProt Q0JBA9, entry or part of it: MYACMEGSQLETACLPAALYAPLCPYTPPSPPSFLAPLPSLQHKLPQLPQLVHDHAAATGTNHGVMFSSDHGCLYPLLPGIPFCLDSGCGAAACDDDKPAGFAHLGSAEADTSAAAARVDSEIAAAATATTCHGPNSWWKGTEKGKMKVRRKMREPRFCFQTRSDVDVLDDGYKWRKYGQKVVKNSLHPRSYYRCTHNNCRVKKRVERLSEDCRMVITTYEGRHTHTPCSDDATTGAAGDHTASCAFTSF
# The other results are listed elsewhere or left out.
# Biological target: OsWRKY34 (Oryza sativa, UniProt Q0JBA9 1-250)
# Assay: protein-binding microarray (RPBM); PBS, 2% BSA, 51.3 ng/ul salmon testes DNA, 50 uM zinc acetate, 200 nM TF, 25 C, 1 h; high values mean tight binding
# Settings: protein: recombinant; tags: N-terminal polyhistidine and DsRed monomer fusion (pET32a); label: CyDye5-dUTP incorporated in the synthesized complementary strand; 3' TTTTT single-stranded linker to array surface; dsDNA, one strand shown
# Procedure, shortened: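 Using Ni–NTA, transcription factors fused N-terminally to polyhistidine and DsRed were purified after expression in E. coli BL21-CodonPlus. These were incubated at 200 nM with a blocked, double-stranded custom Agilent array for 1 h at 25 °C in a buffer containing 50 µM zinc acetate, and the array was washed. The binding signal is per-feature fluorescence intensity (arbitrary units) on an Axon 4000B scanner.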
row,Sequence,binding signal
1,CGATTCGACCGTTGCCGCCTCGCCCGCTCCGCGCACGCGCCGGAGTCACCTAGTGCAG,8930 fluorescence intensity (a.u.)
2,ATGGCCGCCGCCCGTGGTTGCCTCGTCTCTCCGCCTACATCGGAGTCACCTAGTGCAG,9510 fluorescence intensity (a.u.)
3,TCCTATAAGTCAACCTTATCGCTCTCTCGTCTCTTATCTTCGGAGTCACCTAGTGCAG,8880 fluorescence intensity (a.u.)
4,ACTTTTTTTGCTGTGTGTGTGTGTGCATTTCGGTGCTCCACGGAGTCACCTAGTGCAG,8110 fluorescence intensity (a.u.)
5,CGAACAGCGTCTCACGCGGCAGCGATGGCAGTGGGGCTCGCGGAGTCACCTAGTGCAG,9860 fluorescence intensity (a.u.)
6,ACTGCGGATGCATCCATTGAACGAACCCATTCTGCATGTTCGGAGTCACCTAGTGCAG,8430 fluorescence intensity (a.u.)
7,GGGCCTCGGCCAACCCCACCTGGGCCGGATTGTTATCATACGGAGTCACCTAGTGCAG,9120 fluorescence intensity (a.u.)
8,GGGTGGTGTGTGTGAGAGTGAGTAACGAAGGCTTGAGGTTCGGAGTCACCTAGTGCAG,9880 fluorescence intensity (a.u.)
9,TTCTAAATTTGAAACGGTTTTATGACTTCTTTTCAGCGTTCGGAGTCACCTAGTGCAG,8520 fluorescence intensity (a.u.)
10,GTTTGTCTTCACGTCCTTTTCTTTTGCTTCAAATACGTTTCGGAGTCACCTAGTGCAG,12800 fluorescence intensity (a.u.)
11,TTCGGGGAGGGTTTTCGGGGACAGCAGCTGCGGGCTTAAACGGAGTCACCTAGTGCAG,18700 fluorescence intensity (a.u.)
12,CCCCGACTCTCTTCTTACGCACACCAATAGCATCGAGTACCGGAGTCACCTAGTGCAG,11000 fluorescence intensity (a.u.)
13,TCTTCGCAACTCCAAACTTCCCGAGCATCTTATCTTTGCACGGAGTCACCTAGTGCAG,8990 fluorescence intensity (a.u.)
14,TCATCAGTTTCTTCACATTTGCTATTCTCCGTTTATTTCCCGGAGTCACCTAGTGCAG,12600 fluorescence intensity (a.u.)
15,TGGCTTGTTTCACCTCTCCTATTGCATGCACCGCATCTCTCGGAGTCACCTAGTGCAG,9940 fluorescence intensity (a.u.)
16,TCCCGTCTGCCGCCGGCGCCGATCTCCATCCTGCGAGCAGCGGAGTCACCTAGTGCAG,8350 fluorescence intensity (a.u.)
17,TGACAGCGACCCACTCGCCCAACACTCCGCCGCTCCATTTCGGAGTCACCTAGTGCAG,8030 fluorescence intensity (a.u.)
18,CTCGCATAATCTTGTATCCCTCATCTCAGATTATCATCACCGGAGTCACCTAGTGCAG,9130 fluorescence intensity (a.u.)
19,CTATCGGAGAATTGGGTATATCTTTTCTTTTACGCTTATACGGAGTCACCTAGTGCAG,8150 fluorescence intensity (a.u.)
20,TTTTTATATGATATGTGCATCGAATCGTTTCACCTTTCTTCGGAGTCACCTAGTGCAG,8460 fluorescence intensity (a.u.)
21,GTGGGGTCGTGCATGCAGTTATCACATCCATCCATTGATCCGGAGTCACCTAGTGCAG,15000 fluorescence intensity (a.u.)
22,ACTTTTTTTTTTGGGATGCTTCTCTTCTTCCCTGGGTATCCGGAGTCACCTAGTGCAG,9710 fluorescence intensity (a.u.)
23,GTGTGAGATCCATTTGTCACTTACACACCCTCTTTCTCTTCGGAGTCACCTAGTGCAG,8620 fluorescence intensity (a.u.)
24,CGATCCACCTCGTCCATAGCAGCCTCGCATCCGAACCCGACGGAGTCACCTAGTGCAG,11300 fluorescence intensity (a.u.)
25,CAACACTCACCTCACCATCATCTCTTCTCCTCGTGCTCGTCGGAGTCACCTAGTGCAG,8860 fluorescence intensity (a.u.)
26,TTTAACATGATGTGACGGCGGTGTGTTTTTCTGCCATTTTCGGAGTCACCTAGTGCAG,10700 fluorescence intensity (a.u.)
27,CCTAACCTCTGATCACATAACCAACCATGCCGGCCACTTCCGGAGTCACCTAGTGCAG,10600 fluorescence intensity (a.u.)

row,Sequence,binding signal
1,ATGATATTTGTGGTTGGGTTTACTCTAGCGGTTTTATTTACGGAGTCACCTAGTGCAG,9100 fluorescence intensity (a.u.)
2,GTATCCAACGTTTGACCGTCCGTTTTATTTGAAAAATTTACGGAGTCACCTAGTGCAG,11100 fluorescence intensity (a.u.)
3,TATATGCGAGTGTTTTGCAGTTTTACTGTATTTATATATACGGAGTCACCTAGTGCAG,8180 fluorescence intensity (a.u.)
4,AGCCGCTTGGCCACCCCTCGCCACCTGGTCATCGCTGCCGCGGAGTCACCTAGTGCAG,8760 fluorescence intensity (a.u.)
5,TTGCATTTGACTCTTACCTCTAACTAACAATAGTTCTAACCGGAGTCACCTAGTGCAG,11200 fluorescence intensity (a.u.)
6,ATTGTGTAGTGGTATTGGTTATAATTTTCACCTTCGTCTCCGGAGTCACCTAGTGCAG,8170 fluorescence intensity (a.u.)
7,ATTACCAACCTTGCATCGTGCCGTGAATCATATAGGTTTCCGGAGTCACCTAGTGCAG,8680 fluorescence intensity (a.u.)
8,GTGGGTGTTTCTTTGGGTTCTTCTAGCTCTGACATTACAACGGAGTCACCTAGTGCAG,11200 fluorescence intensity (a.u.)
9,CAAACTGTCCAATTAGGCCCATTTACAAATTCACAAATATCGGAGTCACCTAGTGCAG,8260 fluorescence intensity (a.u.)
10,AAAATGTTTGACACCGTTGACTTTTTAGCATATGTTTGACCGGAGTCACCTAGTGCAG,30800 fluorescence intensity (a.u.)
11,TCCACCCACGTCGTCGATCTCGTCCACTCCAATTACATCCCGGAGTCACCTAGTGCAG,8840 fluorescence intensity (a.u.)
12,AAACCATTTGTTGACTCTATAACCACGATCTCTCTTCTGCCGGAGTCACCTAGTGCAG,9190 fluorescence intensity (a.u.)
13,AAGGTGGTGGGGCAGGTGGAGCGGGTGGTCGGGGCGACGCCGGAGTCACCTAGTGCAG,11300 fluorescence intensity (a.u.)
14,TCTTAATCCGTCACTCTGTTTTCCCAACCATCACCTTATACGGAGTCACCTAGTGCAG,8170 fluorescence intensity (a.u.)
15,CGTCTCATTCTTTTTTCGACCCTGTTTTTTCTATCCAGAACGGAGTCACCTAGTGCAG,9990 fluorescence intensity (a.u.)
16,ATTTGTGATATGCCACCTGACCCACATGTCATTGACTCATCGGAGTCACCTAGTGCAG,10500 fluorescence intensity (a.u.)
17,CCTTGACTCAACCACCCTACCATCATGCCAGTCATCCACTCGGAGTCACCTAGTGCAG,8530 fluorescence intensity (a.u.)
18,TATGTTGTATGCTTTGTATGATTTTGTTTATGTTTCATTGCGGAGTCACCTAGTGCAG,9940 fluorescence intensity (a.u.)
19,GTAAAATAGTAATTCAGGAGTGGTGGGTGTTCCTGAAAGACGGAGTCACCTAGTGCAG,10200 fluorescence intensity (a.u.)
20,GCTGTGCCTTGGGTATTGCCTTTTCATATGTCATTTCGAGCGGAGTCACCTAGTGCAG,8050 fluorescence intensity (a.u.)
21,GATTGGGGCGTTCTTGGGAGCTCGGGAATTCGGGTGGTTTCGGAGTCACCTAGTGCAG,11900 fluorescence intensity (a.u.)
22,AGTTTTCTAAGGGCTTGTTGTTACCGGTGTAGCGTTGCGACGGAGTCACCTAGTGCAG,8200 fluorescence intensity (a.u.)
23,TCTCCAACCCCAAAGGTTGTGTGTGTTGTTGTGTACAGGTCGGAGTCACCTAGTGCAG,9700 fluorescence intensity (a.u.)
24,GACACCGTTAACTTTTTAGCATATGTTTGACCGTTCGTCTCGGAGTCACCTAGTGCAG,10600 fluorescence intensity (a.u.)
25,GCAGTAGTCTAAACCCAGCTCTATCTCTTTATTACATTTTCGGAGTCACCTAGTGCAG,8330 fluorescence intensity (a.u.)
26,CCACCACCACCACGCCACGGCAGCCGCACCGCACCGCACCCGGAGTCACCTAGTGCAG,8390 fluorescence intensity (a.u.)
27,AGAAGCTGGGCAGTCGGTGGGCTAGGGGTAGGGAAGGAAACGGAGTCACCTAGTGCAG,10500 fluorescence intensity (a.u.)

# In a second layout: results already given
row | Sequence | binding signal
22 | AGTTTTCTAAGGGCTTGTTGTTACCGGTGTAGCGTTGCGACGGAGTCACCTAGTGCAG | 8200 fluorescence intensity (a.u.)
23 | TCTCCAACCCCAAAGGTTGTGTGTGTTGTTGTGTACAGGTCGGAGTCACCTAGTGCAG | 9700 fluorescence intensity (a.u.)
24 | GACACCGTTAACTTTTTAGCATATGTTTGACCGTTCGTCTCGGAGTCACCTAGTGCAG | 10600 fluorescence intensity (a.u.)
25 | GCAGTAGTCTAAACCCAGCTCTATCTCTTTATTACATTTTCGGAGTCACCTAGTGCAG | 8330 fluorescence intensity (a.u.)
